These are yes or no findings as the source states them, for the method shown. Binding seen in cells or lysates may run through a third protein. Binding calls can cover weak binding; strength is not graded here.
What was measured:
[1] = molecular target: T1, mRFP-CAST1/ERC2 full-length (rat) (UniProt Q8K3M6); assay: co-IP; SH-SY5Y cells co-transfected with pEGFP-SRPK1, -2 or -3 and pmRFP-CAST1/ERC2; RIPA buffer; reciprocal immunoprecipitation with anti-GFP or anti-mCherry overnight at 4 °C, Protein A/G Plus Agarose; normal rabbit IgG as control
T1 sequence: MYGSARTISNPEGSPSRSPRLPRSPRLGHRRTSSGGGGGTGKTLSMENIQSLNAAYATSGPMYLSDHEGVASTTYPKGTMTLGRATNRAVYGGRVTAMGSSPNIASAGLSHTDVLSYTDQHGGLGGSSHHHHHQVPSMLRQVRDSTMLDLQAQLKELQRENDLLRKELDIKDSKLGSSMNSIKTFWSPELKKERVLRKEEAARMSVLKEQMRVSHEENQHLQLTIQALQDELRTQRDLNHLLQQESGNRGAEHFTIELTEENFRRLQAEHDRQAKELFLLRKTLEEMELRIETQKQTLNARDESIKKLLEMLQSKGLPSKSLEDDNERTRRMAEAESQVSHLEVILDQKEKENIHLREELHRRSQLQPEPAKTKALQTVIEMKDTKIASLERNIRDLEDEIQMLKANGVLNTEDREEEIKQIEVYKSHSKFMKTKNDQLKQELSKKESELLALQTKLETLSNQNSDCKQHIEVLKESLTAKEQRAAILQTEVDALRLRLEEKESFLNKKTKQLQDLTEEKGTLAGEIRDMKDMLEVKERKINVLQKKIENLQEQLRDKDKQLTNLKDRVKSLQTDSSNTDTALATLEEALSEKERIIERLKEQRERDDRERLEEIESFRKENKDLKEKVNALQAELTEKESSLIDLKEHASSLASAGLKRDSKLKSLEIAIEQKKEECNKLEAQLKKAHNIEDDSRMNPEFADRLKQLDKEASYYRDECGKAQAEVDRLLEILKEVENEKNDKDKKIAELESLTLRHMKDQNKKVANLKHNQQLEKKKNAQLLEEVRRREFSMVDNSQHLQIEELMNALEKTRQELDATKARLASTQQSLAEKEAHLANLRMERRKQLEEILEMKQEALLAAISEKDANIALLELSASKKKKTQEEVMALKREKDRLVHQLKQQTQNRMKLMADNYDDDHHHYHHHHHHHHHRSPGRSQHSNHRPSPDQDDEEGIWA

[2] = molecular target: T1, mRFP-CAST1/ERC2 full-length (rat); assay: co-IP; HEK293T cells co-transfected with FUG-SRPK1, -2 or -3-W and FUmRFP-CAST1/ERC2-W; RIPA buffer; reciprocal immunoprecipitation with anti-GFP or anti-mCherry overnight at 4 °C, Protein A/G Plus Agarose; normal rabbit IgG as control

Substance | binding [1] | binding [2]
EGFP-SRPK3 (rat) (enzyme) | no binding | no binding
EGFP-SRPK1 (rat) (enzyme) | no binding | no binding
EGFP-SRPK2 (rat) (enzyme) | binds | binds
